The target in assay [1] is T1, phospholipase Cβ1 (PLCβ1), endogenous (rat (endogenous in PC12 and A10)) (UniProt P10687).
T1 sequence: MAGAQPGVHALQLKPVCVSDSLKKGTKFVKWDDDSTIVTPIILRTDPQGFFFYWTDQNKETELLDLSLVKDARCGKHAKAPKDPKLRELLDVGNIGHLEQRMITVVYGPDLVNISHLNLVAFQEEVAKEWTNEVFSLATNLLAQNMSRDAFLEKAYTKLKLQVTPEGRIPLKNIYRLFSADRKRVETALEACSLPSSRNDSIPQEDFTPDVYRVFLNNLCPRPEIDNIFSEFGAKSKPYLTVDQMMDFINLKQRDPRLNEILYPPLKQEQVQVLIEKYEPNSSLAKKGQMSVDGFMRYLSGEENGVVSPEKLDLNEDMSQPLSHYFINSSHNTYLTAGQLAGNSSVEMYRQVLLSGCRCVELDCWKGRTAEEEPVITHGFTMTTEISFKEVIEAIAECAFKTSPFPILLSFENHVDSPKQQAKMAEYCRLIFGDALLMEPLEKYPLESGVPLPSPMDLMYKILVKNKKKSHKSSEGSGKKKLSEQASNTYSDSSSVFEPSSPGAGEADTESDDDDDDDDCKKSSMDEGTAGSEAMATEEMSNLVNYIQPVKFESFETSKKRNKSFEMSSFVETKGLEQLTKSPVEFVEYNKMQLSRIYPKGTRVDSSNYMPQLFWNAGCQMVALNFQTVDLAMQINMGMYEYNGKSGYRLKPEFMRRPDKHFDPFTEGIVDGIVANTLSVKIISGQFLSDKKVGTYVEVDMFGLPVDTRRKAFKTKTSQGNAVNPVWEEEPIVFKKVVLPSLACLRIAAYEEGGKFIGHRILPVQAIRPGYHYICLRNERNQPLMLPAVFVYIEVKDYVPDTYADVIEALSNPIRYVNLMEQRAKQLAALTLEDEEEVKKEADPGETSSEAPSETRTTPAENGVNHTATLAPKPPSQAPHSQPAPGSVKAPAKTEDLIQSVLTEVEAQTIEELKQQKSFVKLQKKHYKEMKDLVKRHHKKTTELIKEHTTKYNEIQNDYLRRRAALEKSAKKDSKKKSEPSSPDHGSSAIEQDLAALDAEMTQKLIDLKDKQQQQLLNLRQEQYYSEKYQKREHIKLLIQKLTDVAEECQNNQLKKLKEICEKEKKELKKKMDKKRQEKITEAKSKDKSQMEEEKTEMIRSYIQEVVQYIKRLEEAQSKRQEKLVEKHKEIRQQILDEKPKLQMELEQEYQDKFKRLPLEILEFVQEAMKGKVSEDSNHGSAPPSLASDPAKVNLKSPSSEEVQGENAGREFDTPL
The assay is described as follows: affinity purification with mass spectrometry.

Chains of the proteins cited; added tags and fusions are not shown.
UniProt Q9QZ81: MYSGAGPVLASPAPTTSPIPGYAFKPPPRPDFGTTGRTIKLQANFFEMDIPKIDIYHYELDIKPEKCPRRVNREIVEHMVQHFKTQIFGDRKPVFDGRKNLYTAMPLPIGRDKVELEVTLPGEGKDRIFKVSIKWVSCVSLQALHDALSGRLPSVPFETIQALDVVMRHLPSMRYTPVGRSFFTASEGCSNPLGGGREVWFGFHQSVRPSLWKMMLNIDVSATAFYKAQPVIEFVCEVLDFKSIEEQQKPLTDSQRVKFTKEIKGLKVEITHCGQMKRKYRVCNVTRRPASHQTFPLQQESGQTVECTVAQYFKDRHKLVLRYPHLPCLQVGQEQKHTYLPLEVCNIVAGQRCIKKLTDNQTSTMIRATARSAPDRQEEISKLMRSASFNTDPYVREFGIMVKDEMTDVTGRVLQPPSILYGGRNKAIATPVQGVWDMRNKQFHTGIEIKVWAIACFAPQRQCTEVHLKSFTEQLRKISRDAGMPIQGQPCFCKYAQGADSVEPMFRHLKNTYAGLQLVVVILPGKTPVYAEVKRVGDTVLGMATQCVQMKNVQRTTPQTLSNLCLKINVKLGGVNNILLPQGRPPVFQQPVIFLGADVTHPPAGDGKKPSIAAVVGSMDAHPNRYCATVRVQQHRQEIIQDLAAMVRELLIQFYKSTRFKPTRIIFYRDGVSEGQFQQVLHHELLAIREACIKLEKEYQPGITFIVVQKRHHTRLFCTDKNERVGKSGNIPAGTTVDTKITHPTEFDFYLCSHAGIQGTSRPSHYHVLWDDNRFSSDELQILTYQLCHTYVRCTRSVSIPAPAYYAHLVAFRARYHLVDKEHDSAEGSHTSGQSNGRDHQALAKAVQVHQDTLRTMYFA

In assay [2] the target is argonaute 2 (Ago2), endogenous (rat (endogenous in PC12 and A10)) (UniProt Q9QZ81). Briefly: affinity purification with mass spectrometry.

Results are given in words; binding and its absence hold for the method and conditions named. In cells and extracts the contact can be indirect. A yes stands for co-enrichment or nearness to the bait. Other partners may have been found. For some assays here: No binding means not detected with the bait.

B1: eIF5B, endogenous (protein, UniProt B2GUV7 1-1216)
chain: MGKKQKNKSEDSTKDDTDLGALAAEIEGAGAAKEQEPQKGKGKKKKEKKKQDFDENDILRELEELSLEAQGIGADRDAATVKPTENNEEESASKQDKKKKGQKGKKTSFDENDSEELEDKDSKSKKPARPNSEVLLSGSEDADDPNKLSKKGKKAQKSTKKRDGSEEDEDNSKRSKERSRVNSSGESGGESDEFLQSRKGQKKNQKNKSVPTIDSGNEDDDSSFKIKTVAQKKAEKKERERKKREEEKAKLRKVKEKEELEKGRKEQSKQREPQKRPDEEVLVLRGTPDAGAASEEKGDIAATLEDDNEGDKKKKDKKKKKTEKDDKEKEKKKGPSKSTVKAIQEALAKLREEEERQKREEEERIKRLEELEAKRKEEERLEQEKRERKKQKEKERKERLKKEGKLLTKSQREARARAEVTLRHLQAQGVEVPSKDSLPKKRPVYEDKKKKKTPQQLESKEALETVEVSAPVEVVDQGVPEKEETPPSVDAEEDEETEDAGLDDWEAMASDEEREKEGNMIHIEVEENPEEEEEEEEDEDEEDSEDEEDEGDSEGSDGDEEDYKLSDEKDLGKAGDTKPNKDASSDSEYDSDDDRTKEERAYDKAKRRIEKRRLEHGKNVNTEKLRAPIICVLGHVDTGKTKILDKLRHTHVQDGEAGGITQQIGATNVPLEAINEQTKMIKNFDRENVRIPGMLIIDTPGHESFSNLRNRGSSLCDIAILVVDIMHGLEPQTIESINILKSKKCPFIVALNKIDRLYDWKKSPDSDVAVTLKKQKKNTKDEFEERAKAIIVEFAQQGLNAALFYENKDPRTFVSLVPTSAHTGDGMGSLIYLLVELTQTMLSKRLAHCEELRAQVMEVKALPGMGTTIDVILINGRLKEGDTIIVPGVEGPIVTQIRGLLLPPPMKELRVKNQYEKHKEVEAAQGVKILGKDLEKTLAGLPLLVAYKDDEIPVLKDELIHELKQTLNAIKLEEKGVYVQASTLGSLEALLEFLKTSEVPYAGINIGPVHKKDVMKASVMLEHDPQYAVILAFDVRIERDAQEMADSLGVRIFSAEIIYHLFDAFTKYRQDYKKQKQEEFKHIAVFPCKMKILPQYIFNSRDPIVIGVTVEAGQVKQGTPMCVPSKNFVDIGIVTSIEINHKQVDVAKKGQEVCVKIEPIPGESPKMFGRHFEATDILVSKISRQSIDALKDWFRDEMQKSDWQLIVELKKVFEII
For the molecule B1, the binding entry in assay [1] is on record as “binds”; in assay [2], “no binding”.

These data come from paper doi:10.1101/521369.
